In PubChem BioAssay AID1487 (National Center for Advancing Translational Sciences (NCATS), 2009):
Some of the results follow. These are further read-outs of the screen, such as a control signal, another cell line or another target. No call is given for them. The list favours compounds with an active or inconclusive main result. The note in brackets gives the kind of curve behind each potency; many fits are weak.

Experiment: qHTS Assay for Modulators of Lamin A Splicing
Conditions: HeLa LMNA splicing GFP/RFP minigene ratio, 48 h
Procedure, shortened: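 S3 HeLa stable clones carrying a lamin A-EGFP splicing minigene plus DsRed2 were seeded at 600 cells/well in Opti-MEM with 2% FBS, pin-dosed and incubated 48 h at 37°C. Acumen cytometry (488 nm) gave the GFP/RFP total-intensity ratio.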

[1] = measured here: RFP viability control channel
[2] = measured here: GFP splicing reporter channel

In the case of `CCCCCC(=O)Nc1sc(C)c(C)c1C#N`, the AC50 [1] is reported as 35.5 µM [rising, single point].

In the case of `C[C@]12CC[C@@H]3c4ccc(O)cc4CC[C@H]3[C@@H]1CCC2=O`, the AC50 [2] is reported as 14.1 µM [rising, single point] and the AC50 [1] is reported as 0.0112 µM [falling, full curve, poor fit].

With `Cc1ccc(C)c(N2CCN(C(=O)CN3CCSc4ccc(S(=O)(=O)N(C)C)cc43)CC2)c1` the AC50 [1] was 0.0282 µM [rising, full curve, poor fit].

For `Cc1nc(SCc2ccc(OCCC(C)C)cc2)n[nH]1`, the AC50 [1] was 10 µM [rising, partial curve].

In the case of `O=C(Nc1nnc(-c2ccccc2)o1)c1cc(Cl)sc1Cl`, the AC50 [1] is reported as 0.02 µM [falling, full curve, poor fit].

With `CCOC(=O)C(CC)Sc1cc(C)nc2ccc(OC)cc12` (stereo unspecified) the AC50 [1] was 1.41 µM [rising, full curve, poor fit].

In the case of `Cc1c(C(=O)Nc2ccncc2)sc2nc(-c3ccccc3)cn12`, the AC50 [1] is reported as 10 µM [rising, partial curve, poor fit].

In the case of `CN(C)c1ccc(-c2nc(NCc3cccnc3)c3ccccc3n2)cc1`, the AC50 [2] is reported as 35.5 µM [falling, single point] and the AC50 [1] is reported as 35.5 µM [falling, single point].

In the case of `Nc1ccc(N2CCN(c3ccccc3)CC2)c(F)c1`, the AC50 [1] is reported as 12.6 µM [rising, single point].

For `O=C(Oc1c(-c2ccccc2)oc2ccccc2c1=O)c1ccccc1`, the AC50 [2] was 5.62 µM [rising, partial curve] and the AC50 [1] was 15.8 µM [rising, partial curve, poor fit].

For `COc1ccc(OC)c(Cc2nnc(CCC(=O)NC(C3CC3)C3CC3)o2)c1`, the AC50 [2] was 3.16 µM [rising, single point] and the AC50 [1] was 3.98 µM [rising, full curve, poor fit].

With `COc1cccc(/C=N/n2c(=O)[nH]c3ccccc32)c1OC` the AC50 [2] was 10 µM [rising, single point].

For `Cc1cc(NCCCN2CCOCC2)n2nc(C)c(-c3ccccc3)c2n1`, the AC50 [2] was 11.2 µM [rising, partial curve] and the AC50 [1] was 10 µM [rising, partial curve].

With `CCOC(=O)Cc1csc(/N=C/c2c(O)n(-c3ccc(C)cc3C)c(=O)c3ccccc23)n1` the AC50 [1] was 12.6 µM [rising, partial curve, poor fit].

For `CCOc1ccc(-c2cn(S(=O)(=O)c3cccc4nsnc34)nc2N)cc1`, the AC50 [1] was 31.6 µM [rising, single point].

In the case of `COc1cc(C(=O)NNc2nc3cc4c(cc3s2)OCO4)cc(OC)c1OC`, the AC50 [2] is reported as 35.5 µM [rising, single point] and the AC50 [1] is reported as 35.5 µM [rising, single point].

In the case of `Cc1cc(C)cc(N(CCC(=O)O)S(=O)(=O)c2ccc3ccccc3c2)c1`, the AC50 [2] is reported as 5.62 µM [falling, partial curve, poor fit] and the AC50 [1] is reported as 20 µM [rising, single point].

With `N#Cc1c(NC(=O)C2CC=CCC2C(=O)O)sc2c1CCCCCC2` (stereo unspecified) the AC50 [1] was 14.1 µM [rising, partial curve].

For `C=CCn1c(SCc2ccc(C(=O)Nc3nccs3)cc2)nnc1-c1ccc(C)c(Cl)c1`, the AC50 [1] was 22.4 µM [rising, single point].

In the case of `CC1CCN(S(=O)(=O)c2ccc3ccccc3c2)CC1`, the AC50 [1] is reported as 25.1 µM [rising, single point].

In the case of `CC(=O)c1c(C)[nH]c(C(=O)OCCOc2ccccc2)c1C`, the AC50 [2] is reported as 0.00631 µM [rising, full curve, poor fit] and the AC50 [1] is reported as 20 µM [rising, partial curve, poor fit].

With `CCCCCCCC/C=C\CCCCCCCC(=O)NCCc1ccc(O)c(O)c1` the AC50 [2] was 10 µM [falling, partial curve] and the AC50 [1] was 10 µM [falling, partial curve].

With `COc1ccc(C)cc1NC(=O)C(OC(=O)c1cccc(S(=O)(=O)N(C)c2ccccc2)c1)c1ccccc1` (stereo unspecified) the AC50 [2] was 0.2 µM [rising, partial curve] and the AC50 [1] was 0.501 µM [rising, full curve, poor fit].

With `Cc1cc(C(F)(F)F)c(C#N)c(SCC(=O)Nc2nc3ccccc3s2)n1` the AC50 [2] was 3.16 µM [falling, partial curve, poor fit] and the AC50 [1] was 35.5 µM [falling, partial curve, poor fit].

With `COc1ccc(/C(C)=N\NC(=O)c2ccc3c(c2)OCO3)cc1OC` the AC50 [2] was 0.00316 µM [rising, full curve, poor fit] and the AC50 [1] was 0.00501 µM [rising, full curve, poor fit].

For `FC(F)(F)c1ccc(Oc2ccccc2Cl)nc1`, the AC50 [2] was 5.62 µM [falling, single point].

In the case of `CCOc1ccc(NC(=O)CSc2nc3ccsc3c(=O)n2C(C)CC)cc1` (stereo unspecified), the AC50 [2] is reported as 1.78 µM [falling, partial curve, poor fit] and the AC50 [1] is reported as 0.0891 µM [falling, full curve].

For `Cc1cc(OCC(=O)Nc2ccc(S(=O)(=O)N3CCN(C)CC3)cc2)ccc1Cl`, the AC50 [1] was 35.5 µM [rising, single point].

For `Cc1cc(C)nc(SCC(=O)N/N=C/c2cc(C)n(-c3ccccc3C)c2C)n1`, the AC50 [1] was 31.6 µM [rising, single point].

For `COc1ccc(S(=O)(=O)Nc2ccccc2OC)cc1NC(=O)CC1CC2CCC1C2` (stereo unspecified), the AC50 [1] was 11.2 µM [rising, partial curve].

With `O=C(COc1cccc(NC(=O)c2cccs2)c1)c1ccc(F)cc1` the AC50 [2] was 12.6 µM [rising, partial curve] and the AC50 [1] was 15.8 µM [rising, partial curve].

For `CCCC(=O)c1cc(F)c(N2CCN(C(=O)OCC)CC2)cc1C`, the AC50 [1] was 31.6 µM [rising, single point].

For `C/C(Cn1nnc([N+](=O)[O-])n1)=N\NC(=O)c1ccc(O)cc1O`, the AC50 [2] was 5.01 µM [rising, full curve, poor fit] and the AC50 [1] was 12.6 µM [rising, partial curve].

With `COc1ccc2[nH]c3c(N4CCN(Cc5ccc6c(c5)OCO6)CC4)ncnc3c2c1` the AC50 [1] was 8.91 µM [rising, partial curve].

With `Cc1ccc(/C=C/C(=O)Nc2ccccc2C(N)=O)cc1` the AC50 [1] was 15.8 µM [rising, single point].

For `COc1ccc(-c2noc(N3CCC(C(=O)N4CCN(c5ccccc5OC)CC4)CC3)n2)cc1`, the AC50 [2] was 35.5 µM [rising, single point] and the AC50 [1] was 35.5 µM [rising, single point].

For `O=C1c2ccccc2C(Nc2ccc3c(c2)OCCO3)N1Cc1ccc2c(c1)OCO2` (stereo unspecified), the AC50 [1] was 5.62 µM [rising, partial curve].

In the case of `CC[n+]1ccc(/C=C/c2ccc(N(C)C)cc2)c2ccccc21`, the AC50 [2] is reported as 31.6 µM [falling, single point] and the AC50 [1] is reported as 3.98 µM [rising, single point].

With `COC(=O)c1ccccc1S(=O)c1snnc1C` (stereo unspecified) the AC50 [2] was 0.501 µM [rising, full curve] and the AC50 [1] was 0.794 µM [rising, partial curve].

In the case of `COc1cc(-c2nc(-c3ccc4c(c3)-c3ccccc3S4(=O)=O)c(-c3ccccc3)[nH]2)cc(OC)c1O`, the AC50 [1] is reported as 11.2 µM [rising, single point].

With `CC(C)(C)n1cnc2cc(NCc3cccs3)ccc21` the AC50 [2] was 0.01 µM [falling, full curve, poor fit].

In the case of `COc1ccc(N(C(=O)CCl)C(C(=O)NCCc2ccccc2)c2cccs2)cc1Cl` (stereo unspecified), the AC50 [2] is reported as 35.5 µM [falling, single point] and the AC50 [1] is reported as 35.5 µM [falling, single point].

With `O=C(Nc1nc(-c2ccccc2)cs1)c1ccc2c(=O)n3c(nc2c1)CCCCC3` the AC50 [2] was 35.5 µM [falling, single point].

In the case of `CCOC(=O)CC(=O)CSc1nc(-c2ccccc2)cc(-c2ccccc2)c1C#N`, the AC50 [1] is reported as 11.2 µM [rising, single point].

For `Fc1ccccc1N1CCN(Cc2nc(-c3ccc(Cl)cc3Cl)no2)CC1`, the AC50 [1] was 25.1 µM [rising, single point].

With `Cc1ccc(-n2ncc3c(SCc4ccccn4)ncnc32)c(C)c1` the AC50 [2] was 0.794 µM [falling, full curve, poor fit].

For `CC(NC(=S)Nc1ccc(S(=O)(=O)N2CCOCC2)cc1)C1CC2CCC1C2` (stereo unspecified), the AC50 [1] was 14.1 µM [rising, single point].

With `O=C(CSc1nnc(Nc2ccccc2)s1)Nc1cccc(S(=O)(=O)N2CCCCC2)c1` the AC50 [2] was 10 µM [rising, partial curve, poor fit] and the AC50 [1] was 20 µM [rising, partial curve, poor fit].

With `O=C1/C(=C/c2cccc([N+](=O)[O-])c2)CCc2ccccc21` the AC50 [1] was 31.6 µM [rising, single point].

In the case of `O=C(Nc1ccccc1)N1CCC(c2nc(-c3ccc(S(=O)(=O)N4CCOCC4)cc3)no2)CC1`, the AC50 [2] is reported as 3.55 µM [falling, single point] and the AC50 [1] is reported as 35.5 µM [rising, single point].

In the case of `Cc1ccc(-n2c(=S)[nH]c3sc4c(c3c2=O)CCc2ccccc2-4)cc1`, the AC50 [2] is reported as 3.55 µM [falling, full curve, poor fit].

In the case of `O=[N+]([O-])c1ccccc1CN1CCN(Cc2c[nH]c3ccccc23)CC1`, the AC50 [2] is reported as 17.8 µM [falling, partial curve].

For `CC1(C)S[C@@H]2[C@H](NC(=O)C(N)c3ccccc3)C(=O)N2[C@H]1C(=O)O` (stereo partly specified), the AC50 [2] was 1.12 µM [falling, partial curve, poor fit] and the AC50 [1] was 1 µM [falling, single point].

In the case of `Cc1nc2cc(NC(=O)Nc3cccc4ccccc34)ccc2n1C`, the AC50 [2] is reported as 0.0141 µM [rising, full curve, poor fit].
